# Data reported in article PMC12040169 (PLOS Biology, 2025).
# The list shows a part of the results.
# Test system: T1, CTL2-GFP (C. trachomatis L2/434/Bu, GFP-expressing)
# T1 construct: L2/434/Bu, GFP-expressing
# Parameters: species or system HeLa; Intracellular C. trachomatis growth in HeLa cells, bulk GFP fluorescence relative to DMSO
# Details: bulk GFP, single well; 28.5 h, 10 µM; inhibitor
row,Compound,% of control remaining [%]
1,COc1ccc(-c2cnc(NCC3CC3)c(C(=O)N(C)CCN(C)C)c2)cc1 [CBK076338],107.504
2,CN(C)c1cccc(-c2nc(-c3ccco3)cnc2N)c1 [CBK063970],191.8
3,O=C(O)/C=C/c1ccc(CNS(=O)(=O)c2ccccc2)o1 [CBK286549],102.456
4,O=C(CNC(=O)C1CC=CCC1C(=O)O)Nc1ccc(N2CCCCCC2)cc1 (centres unmarked) [CBK295603],121.893
5,O=C(NCC1(c2cccc(Br)c2)CCOCC1)C1CC(O)CN1 (centres unmarked) [CBK304257],113.125
6,O=C(NC1CCCCC1)c1s/c(=N/O)nnc1Nc1ccccc1 [CBK022275],121.604
7,COc1cc(OC)nc(CC(=O)O)n1 [CBK103537],100.067
8,CN(Cc1ccco1)C(=O)c1cccc(NC(=O)C2CC2)c1 [CBK304857],119.566
9,COc1cc(C)c(C)cc1S(=O)(=O)n1cnc2ccccc21 [CBK287578],94.9433
10,CCC(=O)N1CCc2cc(C(O)CN3CCCC3)ccc21 (centres unmarked) [CBK283110],90.6431
11,Cc1ccc(C(=O)NCCCNc2ccc(Cl)cc2[N+](=O)[O-])cc1 [CBK262334],99.0866
12,Clc1ccc2nc(SCc3csc(Nc4ccccc4)n3)oc2c1 [CBK268269],121.75
13,Cn1c(CNc2ccccc2[N+](=O)[O-])c(C#N)c2ccccc21 [CBK115324],100.979
14,CC(C)(C)OC(=O)NCc1ccc(-c2cc(N3CCN(C(=O)c4ccco4)CC3)ncn2)cc1 [CBK091107],198.586
15,Cc1ccnc2nc(C(=O)Nc3ccc4c(c3)CCC4)nn12 [CBK295194],175.042
16,COc1ccc(C)cc1S(=O)(=O)N(CC(=O)Nc1ccccc1C)c1ccc(Cl)cc1 [CBK267995],89.5795
17,COc1ccc2c(CC(=O)Nc3cccc(-c4csc(C)n4)c3)coc2c1 [CBK295149],133.796
18,CCCc1cc(C2CCCCCN2C(=O)c2cccnc2)no1 (centres unmarked) [CBK282987],121.592
19,Cc1nnnn1-c1cc(NC(=O)NCCCn2ccnc2)ccc1F [CBK305349],142.866
20,Sc1nnc(CSCc2ccccc2Cl)n1-c1ccccc1 [CBK265219],115.052
21,Nc1ccc(-c2nc(-c3ccccc3)c3cc(-c4ccc5nc(-c6ccc(N)cc6)nc(-c6ccccc6)c5c4)ccc3n2)cc1 [CBK261152],97.1807
22,COc1ccccc1CC(=O)NCc1nc(-c2cccc(C)c2)no1 [CBK269336],124.036
23,Cn1c(COc2cccc3cccnc23)nnc1SCC(=O)O [CBK300505],107.275
24,COc1ccc([C@@]23CC[C@@H](NC(=O)Nc4cccc(C(F)(F)F)c4F)C[C@@H]2CN(C)C3)cc1OC [CBK063195A],116.7
25,COc1ccccc1NC(=O)CNC(=O)c1ccc([N+](=O)[O-])cc1 [CBK268657],137.903

# Reformatted with tabs: entries from further up
row	Compound	% of control remaining [%]
7	COc1cc(OC)nc(CC(=O)O)n1 [CBK103537]	100.067
8	CN(Cc1ccco1)C(=O)c1cccc(NC(=O)C2CC2)c1 [CBK304857]	119.566

# The results go on.

row,Compound,% of control remaining [%]
1,C[C@H](Nc1cncc(-c2ccc(F)cc2F)n1)c1ccccc1 [CBK065684],99.2416
2,Cc1nc(C2CN(Cc3ccc(Cl)c4cccnc34)CCO2)no1 (centres unmarked) [CBK305384],95.7998
3,COCCn1cnnc1CN(C)C(=O)NC(C)c1nc2ccccc2[nH]1 (centres unmarked) [CBK307155],141.427
4,CN(C)c1ccc(CNC(=O)Cn2nc(C(=O)O)c3ccccc3c2=O)cc1 [CBK295330],140.102
5,Cc1ccc(C2CC(=O)C(=CNCCN3CCN(C(=S)Nc4ccccc4)CC3)C(=O)C2)cc1 (centres unmarked) [CBK263665],100.737
6,O=C(Nc1ccc2oc(-c3cccnc3)nc2c1)c1ccc(-c2ccccc2OC(F)(F)F)o1 [CBK263872],104.585
7,S=c1[nH]ccn1Cc1cccs1 [CBK008454],124.967
8,Cc1nc2c(c(=O)[nH]1)CN(C1CCCCC1)CC2 [CBK282416],128.171
9,CCc1c(C)nc2n(c1=O)C(CS(=O)(=O)c1ccccc1)CS2 (centres unmarked) [CBK268949],137.978
10,Cn1cncc1CN(Cc1ccccn1)Cc1ccccc1Cl [CBK282129],98.7849
11,Cc1ccc(C(=O)NCc2cccnc2N(C)C2CCCCC2)cn1 [CBK306514],102.561
12,COc1ccc(-c2c(-c3ccc(OCc4cnn(-c5ccccc5)c4)c(C)c3O)n[nH]c2C)cc1 [CBK265006],117.312
13,CCC(CC)C(=O)N(C)c1c(C)nc2ccc(C(=O)NCCc3c[nH]c4ccccc34)cn12 [CBK146495],165.764
14,Brc1cccc(NN=C2CCCC2)n1 [CBK006748],130.499
15,Cc1nc(CC(=O)Nc2ccc(N3CCOCC3)cn2)cs1 [CBK305251],99.4789
16,CN(C)CCCNC(=O)C1CCCN(c2nc3c(-c4ccccc4)csc3c(=O)[nH]2)C1 (centres unmarked) [CBK215504],155.128
17,O=C(NCCc1ccc(O)cc1)c1ccc2nc[nH]c2c1 [CBK153323],103.741
18,Cc1ccc(S(=O)(=O)N2CCOCC2)cc1-c1cnc(N)c(-c2ccc(O)cc2)n1 [CBK122519],82.503
19,COc1cccc2cc(C(=O)NCc3c(F)cccc3F)oc12 [CBK149794],86.7889
20,Cc1nn(C)cc1-c1cncn1Cc1cccc(OC(C)C)c1 [CBK281484],118.88
21,CC(=O)Nc1ccc(Nc2cc(-c3ccc(Cl)cc3)ncn2)cc1 [CBK090720],104.008
22,O=C(C1CC1)N1CC2CN(Cc3ccccc3)CC2C12CCOCC2 (centres unmarked) [CBK283055],123.553
23,Cc1cccc(-c2ncc(NC(=O)CCOc3ccccc3)nc2-c2ccc(N)cc2)c1 [CBK036655],90.3182
24,Cc1csc(-c2cnc(N3CCOCC3)c3nccn23)c1 [CBK091287],188.515
25,Oc1c(-c2cccc(C(F)(F)F)c2)cnc2cccnc12 [CBK081290],105.392

# Individual results from the entries so far.
# In % of control remaining [%], COc1ccc(-c2c(-c3ccc(OCc4cnn(-c5ccccc5)c4)c(C)c3O)n[nH]c2C)cc1 [CBK265006] reads 117.312
# In % of control remaining [%], CN(C)c1ccc(CNC(=O)Cn2nc(C(=O)O)c3ccccc3c2=O)cc1 [CBK295330] reads 140.102
